## Primary screen of a compound library

Protein sequences, listed by entry. Tags and fused reporters are not part of them.
UniProt E9BF75, entry or part of it: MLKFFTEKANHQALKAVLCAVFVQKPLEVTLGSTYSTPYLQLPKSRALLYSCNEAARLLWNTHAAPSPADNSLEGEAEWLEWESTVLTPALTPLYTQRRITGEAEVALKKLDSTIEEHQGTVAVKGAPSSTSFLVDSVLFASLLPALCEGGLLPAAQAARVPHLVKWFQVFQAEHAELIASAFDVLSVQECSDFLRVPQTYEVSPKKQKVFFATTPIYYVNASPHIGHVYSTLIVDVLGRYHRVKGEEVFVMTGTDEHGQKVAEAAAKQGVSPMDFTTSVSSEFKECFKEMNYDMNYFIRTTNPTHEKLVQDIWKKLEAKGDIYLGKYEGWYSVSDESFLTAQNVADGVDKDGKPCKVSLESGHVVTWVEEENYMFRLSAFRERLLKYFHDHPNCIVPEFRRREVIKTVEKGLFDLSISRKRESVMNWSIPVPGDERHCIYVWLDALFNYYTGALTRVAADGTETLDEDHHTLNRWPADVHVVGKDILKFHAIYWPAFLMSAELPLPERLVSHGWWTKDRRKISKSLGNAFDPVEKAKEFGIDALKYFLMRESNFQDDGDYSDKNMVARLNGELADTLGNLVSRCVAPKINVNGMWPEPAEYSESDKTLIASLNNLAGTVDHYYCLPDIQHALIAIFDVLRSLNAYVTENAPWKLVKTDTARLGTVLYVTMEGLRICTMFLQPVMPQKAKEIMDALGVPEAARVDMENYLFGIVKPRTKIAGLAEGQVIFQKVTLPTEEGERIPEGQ

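Primary screen of methionyl-tRNA synthetase; the read-out is not stated. Target: Methionyl-tRNA synthetase (putative), Leishmania donovani (UniProt E9BF75). The test concentration is not given. The values are filed as inhibition. About 68,000 compounds were tested under these conditions; 0.035% (about 24) showed 50% or more at least once.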

Results are percentages, as filed.
How 0% and 100% were set is not recorded. Most values in the screen are low, and negative values occur.
Compounds were drawn at random from those tested, without regard to their results.

compound: COCC1(C(=O)N[C@H]2CN(c3ccnc(C)c3)C[C@@H]2C2CC2)CCC1
inhibition: 5.367

compound: Cc1ccc(C(=O)NC(CN2CCCC2=O)c2ccccc2)cn1 (stereo not shown)
inhibition: 13.66

compound: CCC(C)NC(=O)c1cccc(CNC(=O)CC(F)(F)F)c1 (stereo not shown)
inhibition: 3.855

compound: CN(Cc1ccc(F)cc1)CC1(O)CCN(C(=O)c2ccn(C)n2)C1 (stereo not shown)
inhibition: 7.91

compound: CC(C)c1nc(CN2CCOC(CNc3cccnn3)C2)cs1 (stereo not shown)
inhibition: 27.92

compound: CC(C)C(=O)N1CCC(Cc2nccnc2Nc2ccccn2)CC1
inhibition: 3.39

compound: COc1ccc(CN2CC[C@@H]3CN(S(C)(=O)=O)CCO[C@@H]3C2)cc1
inhibition: 6.574

compound: CNC(=O)C(C)(C)N1CCC[C@H]1C(=O)NC1CC1
inhibition: 5.495

compound: COc1c(C)cnc(CN(C)C(=O)Nc2ccc3c(c2)CCO3)c1C
inhibition: 9.028

compound: CN(Cc1ccco1)Cc1ccccc1CNC(=O)c1ccncc1
inhibition: 10.51

compound: CC1(NC(=O)CNC(=O)C(C)(C)C)CCc2ccccc2C1 (stereo not shown)
inhibition: 13.73

compound: CCN1CC(C(=O)NCc2noc(Cc3ccccc3)n2)CCC1=O (stereo not shown)
inhibition: 15.08

compound: Cc1cc(C)nc(N2CCC(NCCSc3nnnn3C)CC2)n1
inhibition: 20.96

compound: Cc1ccc(C(C)NC(=O)N2CCCN(CC(F)F)CC2)s1 (stereo not shown)
inhibition: -1.412

compound: COc1ccc(S(=O)(=O)N2C[C@H](OC)[C@]3(CCCO3)C2)cc1
inhibition: 8.861

compound: Cc1nc(C2(O)CCCNCC2)sc1CCOc1ccc(Cl)cc1 (stereo not shown)
inhibition: 14.73

compound: Cc1ncc(CN2CCOC(CN(C)c3cccnn3)C2)s1 (stereo not shown)
inhibition: 11.34

compound: Cc1noc(CN2CCCC(Cn3nc(C)nc3C)C2)n1 (stereo not shown)
inhibition: 15.38

Some entries from above, unchanged:

{"compound": "COCC1(C(=O)N[C@H]2CN(c3ccnc(C)c3)C[C@@H]2C2CC2)CCC1", "inhibition": 5.367}
{"compound": "CN(Cc1ccc(F)cc1)CC1(O)CCN(C(=O)c2ccn(C)n2)C1", "stereo": "stereo not shown", "inhibition": 7.91}

Data taken from ChEMBL document CHEMBL3988442, “University of Dundee, Small-Polar-MMV Screening Library” (2021).